Substitutions are numbered along the chain they refer to. These are yes or no findings as the source states them, for the method shown. Binding seen in cells or lysates may run through a third protein. A yes stands for co-enrichment or nearness to the bait. Other partners may have been found. For some assays here: A no says only that the protein was not detected with the bait. Sequences can lack the tags named with a protein.
What was measured:
[1] = biological target: T1, GFP-NIP45 WT (U2OS Flp-In T-REx NIP45-KO cells) (human) (UniProt Q8NCF5); assay: affinity purification with mass spectrometry; GFP pulldowns from U2OS Flp-In T-REx NIP45-KO cells stably expressing GFP-NIP45 wt or SLD2*, LC-MS/MS, n = 4 biological replicates
T1 sequence: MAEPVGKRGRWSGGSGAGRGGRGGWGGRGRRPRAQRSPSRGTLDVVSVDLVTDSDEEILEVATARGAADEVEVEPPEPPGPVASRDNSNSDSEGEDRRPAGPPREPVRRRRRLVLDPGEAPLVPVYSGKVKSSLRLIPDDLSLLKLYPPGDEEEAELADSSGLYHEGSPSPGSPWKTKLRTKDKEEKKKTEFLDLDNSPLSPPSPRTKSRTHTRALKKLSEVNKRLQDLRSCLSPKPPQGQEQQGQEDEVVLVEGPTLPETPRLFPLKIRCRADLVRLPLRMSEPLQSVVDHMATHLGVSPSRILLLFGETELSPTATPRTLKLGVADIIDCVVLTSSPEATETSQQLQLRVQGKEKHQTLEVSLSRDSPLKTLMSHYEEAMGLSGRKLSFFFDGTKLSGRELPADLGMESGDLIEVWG

Amino acid sequences for entries named in this document (tags omitted).
UniProt P63279: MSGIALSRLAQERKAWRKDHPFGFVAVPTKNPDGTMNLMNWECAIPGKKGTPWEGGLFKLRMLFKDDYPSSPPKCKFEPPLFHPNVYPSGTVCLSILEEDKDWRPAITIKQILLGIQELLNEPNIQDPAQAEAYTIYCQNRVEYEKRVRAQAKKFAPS

[2] = biological target: T2, GFP-NIP45 SLD2* (D394R) (human) (UniProt Q8NCF5); assay: as above
T2 sequence: T1 sequence with D394R

binding [1]: binds
binding [2]: no binding
Substance: SUMO E2 enzyme UBC9, endogenous (from UniProt P63279 1-158)
